What all share (assay): pull-down; His6-tagged paxillin (WT, S273A, S273D) or His6-tagged DDX42 (WT, D407A) overexpressed in Ba/F3 cells, precipitated from the lysate with Ni-NTA agarose beads; co-precipitated endogenous proteins detected by western blot (anti-DDX42, anti-GIT1, anti-paxillin); mock-transfected and parental cells as controls
In general terms: Immunoblotting shows a protein as a band on a membrane.

Chains of the proteins cited; added tags and fusions are not shown. Lines headed by an entry give the natural chain unless they say otherwise; changes in a name come on top.
UniProt Q8VI36: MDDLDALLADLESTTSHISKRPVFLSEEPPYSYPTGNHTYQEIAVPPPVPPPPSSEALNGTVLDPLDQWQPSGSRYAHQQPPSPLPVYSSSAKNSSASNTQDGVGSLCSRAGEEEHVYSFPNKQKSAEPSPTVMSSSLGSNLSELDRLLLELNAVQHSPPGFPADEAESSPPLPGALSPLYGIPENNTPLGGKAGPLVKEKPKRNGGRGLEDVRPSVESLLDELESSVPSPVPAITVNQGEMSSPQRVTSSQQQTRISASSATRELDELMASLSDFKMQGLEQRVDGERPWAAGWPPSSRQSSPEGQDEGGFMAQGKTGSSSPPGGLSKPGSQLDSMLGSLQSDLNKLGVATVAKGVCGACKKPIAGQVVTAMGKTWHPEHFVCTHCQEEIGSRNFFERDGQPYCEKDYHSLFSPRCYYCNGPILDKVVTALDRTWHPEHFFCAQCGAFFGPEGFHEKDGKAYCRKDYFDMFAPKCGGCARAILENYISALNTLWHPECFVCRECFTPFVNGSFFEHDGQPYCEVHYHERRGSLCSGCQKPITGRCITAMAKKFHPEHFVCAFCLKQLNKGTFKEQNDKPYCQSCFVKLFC

Experiment [1] concerns the target His6-tagged DDX42 mutant D407A (mouse) (UniProt Q810A7).
Experiment [2] deals with His6-tagged paxillin mutant S273A (mouse) (UniProt Q8VI36).
Experiment [3] concerns the target His6-tagged paxillin mutant S273D (mouse) (UniProt Q8VI36).

The record followed here is paper PMC6394298.

These are yes or no findings as the source states them, for the method shown. Binding seen in cells or lysates may run through a third protein. For some assays here: Binding can be weak; no strength is given.

Regarding “paxillin (endogenous in Ba/F3 cells) (from UniProt Q8VI36 1-591)”, in experiment [1], the binding result is reported as “no binding”.

B1: ATP-dependent RNA helicase DDX42 (protein, UniProt Q810A7 1-929)
chain: MNWNKGGPGTKRGFGFGGFAISAGKKEEAKLPQQSHSAFGAASSSSGFGKSAPPQLPSFYKIGSKRANFDEENAYFEDEEEDSSNVDLPYIPAENSPTRQQFHSKPADSDSDDDPLEAFMAEVEDQAARDMKRLEEKDKERKNVKGIRDDIEEEDDQEAYFRYMAENPTAGVVQEEEEDNLEYDSDGNPIAPSKKIIDPLPPIDHSEIDYPPFEKNFYNEHEEITNLTPQQLIDLRHKLNLRVSGAAPPRPGSSFAHFGFDEQLMHQIRKSEYTQPTPIQCQGVPVALSGRDMIGIAKTGSGKTAAFIWPMLIHIMDQKELEPGDGPIAVIVCPTRELCQQIHAECKRFGKAYNLRSVAVYGGGSMWEQAKALQEGAEIVVCTPGRLIDHVKKKATNLQRVSYLVFDEADRMFDMGFEYQVRSIASHVRPDRQTLLFSATFRKKIEKLARDILIDPIRVVQGDIGEANEDVTQIVEILHSGPSKWNWLTRRLVEFTSSGSVLLFVTKKANAEELASNLKQEGHNLGLLHGDMDQSERNKVISDFKKKDIPVLVATDVAARGLDIPSIKTVINYDVARDIDTHTHRIGRTGRAGEKGVAYTLLTPKDSNFAGDLVRNLEGANQHVSKELLDLAMQNAWFRKSRFKGGKGKKLNIGGGGLGYRERPGLGSENSDRGNNNNVMSNYEAYKPSTGAMGDRLTAMKAAFQSQYKSHFVAASLSNQKAGTSSAGASGWTSAGSLNSVPTNSAQQGHNSPDNPMTSSTKNIPGFNNSGNISSAPVTYPSIGAQGVNNTASGNNSREGIGGGNGKRERYTENRGGSRHSHGDGGNRHGDGGRHGDGYRYPESGSRHTDGHRHGETRHGGSAGRHGESRGANDGRNGESRKEGFNRENKMDPKVDSSRMDKVDSKTDKTPDGFAVPEPPKRKKSRWDS
In the case of B1, the binding result in experiment [2] is listed as “binds”; in experiment [3], “binds weakly”.

B2: ARF GTPase-activating protein GIT1 (protein, UniProt Q68FF6 1-770)
chain: MSRKGPRAEVCADCSAPDPGWASISRGVLVCDECCSVHRSLGRHISIVKHLRHSAWPPTLLQMVHTLASNGANSIWEHSLLDPAQVQSGRRKANPQDKVHPIKSEFIRAKYQMLAFVHKLPCRDDDGVTAKDLSKQLHSSVRTGNLETCLRLLSLGAQANFFHPEKGTTPLHVAAKAGQTLQAELLVVYGADPGSPDVNGRTPIDYARQAGHHELAERLVECQYELTDRLAFYLCGRKPDHKNGHYIIPQMADRSRQKCMSQSLDLSELAKAAKKKLQALSNRLFEELAMDVYDEVDRRENDAVWLATQNHSTLVTERSAVPFLPVNPEYSATRNQGRQKLARFNAREFATLIIDILSEAKRRQQGKSLSSPTDNLELSARSQSELDDQHDYDSVASDEDTDQEPLPSAGATRNNRARSMDSSDLSDGAVTLQEYLELKKALATSEAKVQQLMKVNSSLSDELRRLQREIHKLQAENLQLRQPPGPVPPPSLPSERAEHTLMGPGGSTHRRDRQAFSMYEPGSALKPFGGTPGDELATRLQPFHSTELEDDAIYSVHVPAGLYRIRKGVSASSVPFTPSSPLLSCSQEGSRHASKLSRHGSGADSDYENTQSGDPLLGLEGKRFLELSKEDELHPELESLDGDLDPGLPSTEDVILKTEQVTKNIQELLRAAQEFKHDSFVPCSEKIHLAVTEMASLFPKRPALEPVRSSLRLLNASAYRLQSECRKTVPPEPGAPVDFQLLTQQVIQCAYDIAKAAKQLVTITTREKKQ
B2: the binding entry in experiment [2] is “binds”; in experiment [3], “binds weakly”.
